Measured values published in PubChem BioAssay AID540256 (National Center for Advancing Translational Sciences (NCATS), 2011).
Values joined by “and” are separate entries in the source; they are usually repeats but may differ in a detail not shown here. Identical values can stand only once. In all, about 300,000 compounds went through this assay and about 3,700 (1.2%) were called active. This list was built around the results that the source calls inconclusive (neither active nor inactive); the mix of calls is not that of the screen. The call rests on the fitted dose curve; tested in HEK293 cells. Potencies of inconclusive entries are doubtful fits and often do not repeat.

test: qHTS for Inhibitors of binding or entry into cells for Lassa Virus; settings: Lassa virus pseudotype entry inhibition, cell reporter; activity change, negative = inhibition: at 37.9 µM (top of the series) unless noted; further: nearly all actives have a fitted effect of over 50% in size
On the % scale 0 is the no-effect control and ±100 the full control effect; potency means the concentration at half of the fitted maximal effect.

SMILES	Potency	activity change, negative = inhibition
O=S1(=O)c2ccccc2OC(COCc2ccccc2)CN1C1CC1 (stereo not drawn)	inconclusive: 12.5 µM [inhibitor, partial curve, poor fit]	
O=C1COc2ccc(C(=O)COC(=O)c3sc4ccccc4c3Cl)cc2N1	inconclusive: 16.4 µM [inhibitor, partial curve, poor fit]	
CCOC(=O)C1CCCN(Cc2cn3c(-c4ccc(Br)cc4)nnc3s2)C1 (stereo not drawn)	inconclusive: 6.31 µM [inhibitor, single point]	
COC(=O)c1ccc(CSc2nc3c(c(=O)n2-c2ccc(F)cc2)SCC3)o1	inconclusive: 13 µM [inhibitor, partial curve, poor fit]	
COc1ccc(C(=O)Nc2ccc3c(c2)nc(CCNC(C)=O)n3C)cc1		inactive: 1.48%
COc1ccc(NC(=O)C(=O)NCC(c2cccnc2)N2CCc3ccccc3C2)cc1 (stereo not drawn)	inconclusive: 3.55 µM [inhibitor, single point]	
COc1ccc(-n2c(-c3ccccc3)cc3c2CCCC3=O)cc1	inconclusive: 35.5 µM [inhibitor, single point]	
COc1ccc2nc(SCC(=O)N3CC(=O)Nc4ccccc43)c(C#N)cc2c1	inconclusive: 2 µM [inhibitor, partial curve, poor fit]	
COc1ccc(OCC(=O)NN2Cc3ccccc3C2=N)cc1	inconclusive: 0.891 µM [inhibitor, single point]	
O=c1c2ccccc2cnn1Cc1n[nH]c(=S)n1-c1ccc(F)c(Cl)c1	inconclusive: 7.94 µM [activator, partial curve]	
CC(=O)c1cccc(S(=O)(=O)N2CCCC(c3nc4c(nnn4Cc4cccc(Cl)c4)c(=O)[nH]3)C2)c1 (stereo not drawn)	inconclusive: 8.91 µM [inhibitor, partial curve, poor fit]	
COc1ccc2cc3cc(C(=O)Nc4cc(OC)c(OC)c(OC)c4)oc3nc2c1	inconclusive: 16.4 µM [inhibitor, partial curve, poor fit]	
O=C(Nc1nccs1)C(=O)c1c[nH]c2ccccc12	inconclusive: 1.26 µM [activator, single point]	
Cc1oc(-c2cccc(Cl)c2)nc1CN1CCC(C(=O)NCc2cccnc2)CC1		inactive: -10.3%
CC(C)c1ccc(/C=C/C(=O)N2CCOCC2)cc1	inconclusive: 12.6 µM [inhibitor, single point]	
CCCN1CCN(c2ncnc3sc(C(=O)Nc4cccc(Cl)c4C)c(C)c23)CC1	inconclusive: 35.5 µM [activator, single point]	
COCCNC(=O)c1ccccc1NC(=O)CSc1ccc(C)cc1		inactive: 21.8% [at 46.1 µM]
CCCSc1nc2c(c(=O)[nH]1)C(c1ccc(F)cc1F)CC(=O)N2 (stereo not drawn)		inactive: -22.5% [at 46.1 µM]
O=C(NCc1ccc(Cl)cc1)c1cc(-c2cccs2)on1		inactive: 0.32%
COC(=O)N[C@H](C(C(=O)OC)=C(C)NCc1ccccc1)c1cccc(C)c1	inconclusive: 1.19 µM [inhibitor, single point]	
O=C(OCC(=O)c1ccc([N+](=O)[O-])cc1)/C(=C/c1ccc(Cl)cc1)NC(=O)c1ccccc1		inactive: 5.79%
COc1ccccc1-n1c(CNc2c(C)cccc2C)nnc1SCC(=O)N1CCOCC1		inactive: -9.95%
Cc1[nH]n(C(N)=S)c(=O)c1N=Nc1cc(-c2ccc(Br)cc2)[nH]n1		inactive: 16.1%

SMILES	Potency	activity change, negative = inhibition
COc1ccc(/C=N/n2c(-c3cc(C)[nH]n3)n[nH]c2=S)cc1	inconclusive: 14.1 µM [inhibitor, single point]	
O=C(CSc1nnnn1C1CCCCC1)NCc1cccc(C(=O)O)c1	inconclusive: 1.26 µM [activator, single point]	
C/C(=N/NC(=O)CNC(=O)c1cccs1)c1ccc(Cl)cc1		inactive: 5.95% [at 46.1 µM]
CC1CCC(NC(=S)NCCN(C)C)CC1 (stereo not drawn)		inactive: -25.2%
CCOc1ccc(-c2nc(CNC(=O)Nc3ccccc3)c(C)o2)cc1		inactive: 2.23% [at 46.1 µM]
NNC(=O)c1[nH]c2ccc(Cl)cc2c1-c1ccccc1	inconclusive: 25.1 µM [inhibitor, partial curve, poor fit]	
COc1ccc(CCN2CC(C(=O)Nc3cc(S(C)(=O)=O)ccc3Cl)CC2=O)cc1OC (stereo not drawn)	inconclusive: 2 µM [inhibitor, single point]	
Cc1ccc(CNC(=O)c2cn(C)c3ccc(S(=O)(=O)N4CCOCC4)cc3c2=O)cc1	inconclusive: 1 µM [inhibitor, full curve, poor fit] and inconclusive: 1.12 µM [inhibitor, full curve, poor fit]	
COc1ccc(NC(=O)Nc2cccnc2)cc1		inactive: 0.211%
O=C1Nc2ccccc2C1=Nc1ccc(Cl)cc1	inconclusive: 6.31 µM [inhibitor, full curve, poor fit]	
COc1cc(-c2nnc(-c3ccc(N4CCOCC4)cc3)o2)cc(OC)c1OC	inconclusive: 29.1 µM [inhibitor, single point]	
Cc1cc(=O)oc(C)c1C(=O)NCc1c(F)cc(F)cc1F		inactive: 6.53%
CC(/C=N/NC(=O)CN1CCN(Cc2ccc(Cl)cc2)CC1)=C\c1ccco1		inactive: 4.31%
CCn1c(NCc2cc(OC)c(OC)c(OC)c2)nc2ccccc21		inactive: -12.5% [at 46.1 µM]
CCN1CCN(CCCN(Cc2ccco2)C(=S)Nc2cccc(Cl)c2C)CC1	inconclusive: 35.5 µM [inhibitor, single point]	
Fc1ccc(N2CCN(C(c3cccs3)c3nnnn3CCc3ccccc3)CC2)cc1 (stereo not drawn)	active: 11.2 µM	
O=C(NC1=NCCS1)c1ccc(OCC2CCCO2)cc1 (stereo not drawn)	inconclusive: 14.1 µM [inhibitor, single point]	
CC(=O)c1ccc(S(=O)(=O)NCC(=O)N2CCN(C/C=C/c3ccccc3)CC2)cc1	inconclusive: 10 µM [inhibitor, partial curve, poor fit]	
Nc1c(C(=O)NCc2ccccc2)sc2nc3c(cc12)C(=O)CCC3	inconclusive: 35.5 µM [inhibitor, single point]	
CN(C)CCN(Cc1ccco1)c1ccccn1	inconclusive: 6.31 µM [activator, partial curve]	
Cn1c(-c2ccc(S(=O)(=O)N3CCCC3)cc2)csc1=Nc1ccc(Cl)c(Cl)c1	inconclusive: 7.94 µM [inhibitor, partial curve, poor fit]	
COc1ccc(C2CC(=O)c3cnc(NC(=O)c4ccccc4OC)nc3C2)c(OC)c1 (stereo not drawn)	inconclusive: 12.6 µM [inhibitor, partial curve, poor fit]	
CN(c1cccc(NC(=O)c2ccc(C(C)(C)C)cc2)c1)S(C)(=O)=O	inconclusive: 11.2 µM [inhibitor, partial curve, poor fit]	

SMILES	Potency	activity change, negative = inhibition
COC(=O)/C=c1/sc2nc3ccccc3n2c1=O	inconclusive: 23.1 µM [activator, single point]	
CCC1CCc2nc3sc(C(=O)Nc4ccc(F)c(F)c4)c(N)c3cc2C1 (stereo not drawn)	inconclusive: 2.82 µM [activator, partial curve, poor fit]	
CC(OC(=O)c1cnccn1)C(=O)c1ccccc1 (stereo not drawn)		inactive: 25.5%
CCOC(=O)C1=C(C)NC2=C(C(=O)CC(c3cccs3)C2)C1c1cccs1 (stereo not drawn)	inconclusive: 31.6 µM [inhibitor, partial curve, poor fit]	
CCN(CC)CCN1C(=O)C(=O)/C(=C(/O)c2ccncc2)C1c1ccccc1F (stereo not drawn)	inconclusive: 35.5 µM [activator, partial curve, poor fit]	
N#Cc1nc(-c2cccs2)oc1NCc1ccco1		inactive: 12.4%
Nc1cccn2c(-c3ccc(Cl)cc3)cnc12	inconclusive: 3.55 µM [activator, single point]	
O=C(/C=C/c1ccccc1)Nc1cccnc1Cl	inconclusive: 35.5 µM [inhibitor, single point]	
COc1ccc(-c2c3c(nc4sc(C(=O)Nc5cc(C)on5)c(N)c24)CCC3)cc1	inconclusive: 10.3 µM [inhibitor, partial curve, poor fit]	
COc1ccc(C(=O)NC2CC2)cc1OC1CCN(Cc2ccc(F)cc2Cl)CC1	inconclusive: 0.158 µM [activator, full curve, poor fit]	
CC(=O)NNc1ncnc2c1cnn2-c1ccc(C)c(C)c1		inactive: -0.219%
CC(=O)Nc1ccc(C(=O)OCC(=O)NC(=O)NC2CCCCC2)cc1		inactive: -15.5%
Cn1ncc(Cl)c1C(=O)NCc1cc(C(C)(C)C)n[nH]1		inactive: 13.1%
Cc1ccccc1NC(=O)c1c(NC(=O)C(F)(F)F)sc2c1CCCCC2	inconclusive: 7.08 µM [inhibitor, full curve, poor fit]	
CC(C)CN=c1cc(-c2ccccc2)oc2ccc(Cl)cc12	inconclusive: 35.5 µM [inhibitor, single point]	
C/C(=N\NC(=S)NC(C)C)c1ccco1	inconclusive: 31.6 µM [activator, single point]	
CC(C(O)c1ccc(O)cc1)N1CCC(Cc2ccccc2)CC1 (stereo not drawn)	active: 23.1 µM	
COc1ccc(-n2c(C)cc(C(=O)CSc3nn4c(=O)c(C(C)(C)C)nnc4s3)c2C)cc1	inconclusive: 13 µM [inhibitor, partial curve, poor fit]	
COc1cc2c(cc1OC)/C(=C/C(=O)c1cccc([N+](=O)[O-])c1)NCC2	inconclusive: 7.08 µM [inhibitor, partial curve, poor fit]	
COc1ccc(C(=O)N2CCC(C(=O)N3CCN(c4ccccc4)CC3)CC2)cc1		inactive: -10.2%
Cc1onc(-c2ccccc2Cl)c1C(=O)Nc1ncn[nH]1	inconclusive: 3.26 µM [inhibitor, partial curve, poor fit]	
O=C(CCCN1C(=O)/C(=C\c2cccs2)SC1=S)Nc1ccc(O)cc1	inconclusive: 12.6 µM [inhibitor, partial curve]	
